Experimental data taken from the supplement of paper PMC10849652.
The other results are listed elsewhere or left out.

The chains behind the UniProt entries cited, without tags or fusion partners. Where a name states a change or a piece, a line headed by the entry shows the natural chain unless it says otherwise.
UniProt Q9HBL0: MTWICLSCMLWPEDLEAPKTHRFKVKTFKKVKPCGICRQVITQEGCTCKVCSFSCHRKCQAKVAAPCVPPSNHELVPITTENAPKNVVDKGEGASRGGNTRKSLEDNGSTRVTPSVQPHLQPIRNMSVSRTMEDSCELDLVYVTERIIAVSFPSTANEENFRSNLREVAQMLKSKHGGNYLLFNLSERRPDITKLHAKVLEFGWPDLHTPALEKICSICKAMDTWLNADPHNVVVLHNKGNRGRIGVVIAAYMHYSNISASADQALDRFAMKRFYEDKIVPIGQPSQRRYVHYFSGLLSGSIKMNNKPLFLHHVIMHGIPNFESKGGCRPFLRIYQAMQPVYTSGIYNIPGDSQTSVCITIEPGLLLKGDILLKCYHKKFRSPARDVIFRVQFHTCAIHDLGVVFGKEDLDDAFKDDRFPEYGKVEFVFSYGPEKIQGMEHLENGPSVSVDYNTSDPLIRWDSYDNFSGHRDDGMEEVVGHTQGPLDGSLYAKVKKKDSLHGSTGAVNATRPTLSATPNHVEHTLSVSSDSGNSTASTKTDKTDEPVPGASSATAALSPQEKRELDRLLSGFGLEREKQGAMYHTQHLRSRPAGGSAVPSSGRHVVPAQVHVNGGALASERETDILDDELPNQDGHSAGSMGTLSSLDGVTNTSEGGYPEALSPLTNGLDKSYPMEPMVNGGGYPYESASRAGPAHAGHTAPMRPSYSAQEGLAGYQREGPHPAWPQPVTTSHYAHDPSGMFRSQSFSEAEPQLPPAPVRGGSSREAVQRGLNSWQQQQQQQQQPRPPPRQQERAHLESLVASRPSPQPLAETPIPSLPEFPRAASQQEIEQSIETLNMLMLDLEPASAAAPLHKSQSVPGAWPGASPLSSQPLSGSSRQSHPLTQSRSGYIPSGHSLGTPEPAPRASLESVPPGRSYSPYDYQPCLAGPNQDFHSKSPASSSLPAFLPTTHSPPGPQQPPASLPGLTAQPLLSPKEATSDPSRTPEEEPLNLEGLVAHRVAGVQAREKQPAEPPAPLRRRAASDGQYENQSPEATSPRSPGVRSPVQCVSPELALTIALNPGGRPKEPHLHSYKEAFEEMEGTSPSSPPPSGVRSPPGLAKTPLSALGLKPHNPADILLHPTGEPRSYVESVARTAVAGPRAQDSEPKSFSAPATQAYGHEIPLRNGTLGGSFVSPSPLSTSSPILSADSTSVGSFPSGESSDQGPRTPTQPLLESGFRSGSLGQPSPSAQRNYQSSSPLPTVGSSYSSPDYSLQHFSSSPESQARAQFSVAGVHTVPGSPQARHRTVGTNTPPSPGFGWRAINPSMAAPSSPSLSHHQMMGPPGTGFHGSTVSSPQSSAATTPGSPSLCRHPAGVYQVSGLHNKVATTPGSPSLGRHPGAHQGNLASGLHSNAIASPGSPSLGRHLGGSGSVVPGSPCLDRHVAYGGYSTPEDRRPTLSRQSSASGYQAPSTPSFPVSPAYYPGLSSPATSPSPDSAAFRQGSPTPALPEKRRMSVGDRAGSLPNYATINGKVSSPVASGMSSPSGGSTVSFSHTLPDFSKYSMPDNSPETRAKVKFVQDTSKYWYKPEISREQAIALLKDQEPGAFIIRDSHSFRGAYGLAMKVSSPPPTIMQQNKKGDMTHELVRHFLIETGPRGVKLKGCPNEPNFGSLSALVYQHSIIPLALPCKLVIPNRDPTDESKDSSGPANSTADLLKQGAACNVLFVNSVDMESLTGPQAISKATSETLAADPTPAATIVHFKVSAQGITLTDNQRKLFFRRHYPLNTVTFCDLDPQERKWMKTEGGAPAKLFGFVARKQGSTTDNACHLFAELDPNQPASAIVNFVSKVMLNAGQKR
UniProt A5PLL7: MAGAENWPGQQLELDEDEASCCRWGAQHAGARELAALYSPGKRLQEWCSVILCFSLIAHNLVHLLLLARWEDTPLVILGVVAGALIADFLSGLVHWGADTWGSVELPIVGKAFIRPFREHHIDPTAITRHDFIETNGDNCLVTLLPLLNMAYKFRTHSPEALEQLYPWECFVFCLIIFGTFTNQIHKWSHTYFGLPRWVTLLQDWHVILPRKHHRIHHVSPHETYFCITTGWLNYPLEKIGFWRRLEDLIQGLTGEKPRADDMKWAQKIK
UniProt Q9BXS4: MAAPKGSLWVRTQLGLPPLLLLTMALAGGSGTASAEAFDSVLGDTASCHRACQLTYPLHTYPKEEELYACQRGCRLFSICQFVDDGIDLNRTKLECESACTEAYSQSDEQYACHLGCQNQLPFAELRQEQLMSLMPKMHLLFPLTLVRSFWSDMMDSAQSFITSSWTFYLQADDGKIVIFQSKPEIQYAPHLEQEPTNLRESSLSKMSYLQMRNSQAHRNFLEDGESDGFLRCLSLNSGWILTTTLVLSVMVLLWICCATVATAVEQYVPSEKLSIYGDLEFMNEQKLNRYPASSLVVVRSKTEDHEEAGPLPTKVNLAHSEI
UniProt Q86W33: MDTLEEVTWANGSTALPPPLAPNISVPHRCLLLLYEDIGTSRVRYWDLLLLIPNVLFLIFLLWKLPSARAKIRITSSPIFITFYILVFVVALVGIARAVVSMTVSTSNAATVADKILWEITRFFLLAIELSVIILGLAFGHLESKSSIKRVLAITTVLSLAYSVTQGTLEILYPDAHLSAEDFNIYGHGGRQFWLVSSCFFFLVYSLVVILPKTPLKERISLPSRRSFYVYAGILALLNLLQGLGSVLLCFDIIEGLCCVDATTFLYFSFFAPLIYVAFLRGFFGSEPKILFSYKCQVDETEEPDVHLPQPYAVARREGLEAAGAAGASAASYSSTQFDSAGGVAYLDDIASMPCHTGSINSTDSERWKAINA
UniProt Q5BJD5: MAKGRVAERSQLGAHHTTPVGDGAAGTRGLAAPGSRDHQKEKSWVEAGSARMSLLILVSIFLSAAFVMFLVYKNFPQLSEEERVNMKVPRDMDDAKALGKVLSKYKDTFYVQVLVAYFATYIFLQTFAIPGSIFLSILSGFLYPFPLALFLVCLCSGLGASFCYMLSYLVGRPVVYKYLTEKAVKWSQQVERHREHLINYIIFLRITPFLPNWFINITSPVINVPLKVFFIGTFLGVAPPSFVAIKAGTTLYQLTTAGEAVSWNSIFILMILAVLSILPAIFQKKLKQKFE
UniProt O95271: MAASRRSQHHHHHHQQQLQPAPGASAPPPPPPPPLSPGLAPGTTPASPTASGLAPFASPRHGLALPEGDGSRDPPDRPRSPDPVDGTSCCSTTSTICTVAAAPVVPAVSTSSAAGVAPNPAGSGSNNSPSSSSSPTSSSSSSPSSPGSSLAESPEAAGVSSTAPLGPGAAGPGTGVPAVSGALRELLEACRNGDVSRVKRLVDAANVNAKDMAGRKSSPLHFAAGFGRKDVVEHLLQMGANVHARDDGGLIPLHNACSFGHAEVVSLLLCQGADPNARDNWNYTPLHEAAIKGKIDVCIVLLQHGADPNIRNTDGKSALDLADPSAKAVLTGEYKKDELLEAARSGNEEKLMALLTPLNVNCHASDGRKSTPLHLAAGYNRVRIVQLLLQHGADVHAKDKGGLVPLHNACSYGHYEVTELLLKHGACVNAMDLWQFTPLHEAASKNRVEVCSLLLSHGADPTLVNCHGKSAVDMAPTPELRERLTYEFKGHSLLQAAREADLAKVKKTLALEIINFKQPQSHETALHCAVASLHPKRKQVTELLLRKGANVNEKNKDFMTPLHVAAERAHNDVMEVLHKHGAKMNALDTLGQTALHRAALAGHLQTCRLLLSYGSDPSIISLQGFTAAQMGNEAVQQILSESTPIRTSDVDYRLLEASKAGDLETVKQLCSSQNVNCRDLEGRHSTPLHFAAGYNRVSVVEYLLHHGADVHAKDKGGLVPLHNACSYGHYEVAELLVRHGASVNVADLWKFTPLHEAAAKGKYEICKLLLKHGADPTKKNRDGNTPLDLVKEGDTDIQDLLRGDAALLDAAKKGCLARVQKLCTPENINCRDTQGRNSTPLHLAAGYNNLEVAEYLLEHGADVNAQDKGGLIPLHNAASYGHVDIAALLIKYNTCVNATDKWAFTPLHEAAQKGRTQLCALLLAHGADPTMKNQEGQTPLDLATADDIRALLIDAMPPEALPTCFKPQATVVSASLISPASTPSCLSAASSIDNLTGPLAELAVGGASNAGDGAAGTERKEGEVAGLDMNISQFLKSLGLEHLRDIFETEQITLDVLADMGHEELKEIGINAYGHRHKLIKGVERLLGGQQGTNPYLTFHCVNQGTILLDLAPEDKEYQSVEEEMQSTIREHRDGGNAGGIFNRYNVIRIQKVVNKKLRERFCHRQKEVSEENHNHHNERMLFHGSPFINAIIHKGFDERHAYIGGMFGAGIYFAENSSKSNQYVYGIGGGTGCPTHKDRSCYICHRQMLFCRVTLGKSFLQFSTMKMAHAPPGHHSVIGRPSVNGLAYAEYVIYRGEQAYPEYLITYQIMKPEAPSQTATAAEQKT
UniProt Q96SK2: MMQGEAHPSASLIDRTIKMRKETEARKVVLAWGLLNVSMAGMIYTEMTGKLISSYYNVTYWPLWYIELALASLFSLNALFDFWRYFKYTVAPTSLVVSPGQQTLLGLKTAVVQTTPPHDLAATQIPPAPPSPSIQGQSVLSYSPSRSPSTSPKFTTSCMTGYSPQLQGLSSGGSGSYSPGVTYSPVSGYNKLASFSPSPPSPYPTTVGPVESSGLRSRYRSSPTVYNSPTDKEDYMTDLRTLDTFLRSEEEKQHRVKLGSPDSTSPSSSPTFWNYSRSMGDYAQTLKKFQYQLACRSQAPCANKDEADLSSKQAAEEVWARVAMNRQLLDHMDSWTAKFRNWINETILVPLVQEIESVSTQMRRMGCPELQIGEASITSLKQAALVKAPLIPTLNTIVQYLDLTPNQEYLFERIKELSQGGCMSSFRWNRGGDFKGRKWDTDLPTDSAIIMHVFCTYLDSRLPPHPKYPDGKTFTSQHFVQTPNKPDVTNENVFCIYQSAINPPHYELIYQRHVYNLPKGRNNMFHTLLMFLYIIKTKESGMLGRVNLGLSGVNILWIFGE
UniProt P02585, whole entry, looked up: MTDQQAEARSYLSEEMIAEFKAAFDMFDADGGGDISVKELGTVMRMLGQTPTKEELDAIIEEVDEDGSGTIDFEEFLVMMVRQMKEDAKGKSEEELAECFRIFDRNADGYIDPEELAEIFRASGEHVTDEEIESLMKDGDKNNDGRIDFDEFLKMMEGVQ
UniProt Q4KMQ1: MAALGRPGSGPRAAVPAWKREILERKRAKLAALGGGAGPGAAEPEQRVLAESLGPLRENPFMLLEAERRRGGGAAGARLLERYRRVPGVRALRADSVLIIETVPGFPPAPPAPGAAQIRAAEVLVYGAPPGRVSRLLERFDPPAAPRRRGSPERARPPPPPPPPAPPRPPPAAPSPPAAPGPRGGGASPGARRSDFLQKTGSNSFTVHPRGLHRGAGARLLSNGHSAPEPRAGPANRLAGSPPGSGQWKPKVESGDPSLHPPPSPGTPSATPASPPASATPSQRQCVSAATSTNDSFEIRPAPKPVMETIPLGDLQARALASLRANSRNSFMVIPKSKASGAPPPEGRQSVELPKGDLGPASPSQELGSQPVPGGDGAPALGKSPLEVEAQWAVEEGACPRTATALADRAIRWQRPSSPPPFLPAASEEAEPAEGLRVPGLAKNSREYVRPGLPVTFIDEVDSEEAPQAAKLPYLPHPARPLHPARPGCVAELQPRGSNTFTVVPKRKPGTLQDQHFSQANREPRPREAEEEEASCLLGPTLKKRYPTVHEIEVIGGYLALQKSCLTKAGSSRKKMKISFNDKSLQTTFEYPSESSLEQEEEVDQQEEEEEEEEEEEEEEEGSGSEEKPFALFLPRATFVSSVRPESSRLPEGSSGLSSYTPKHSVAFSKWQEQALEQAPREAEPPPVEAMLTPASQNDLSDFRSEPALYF

Columns and labels:
Experiment in all cases: log2 fold change, soluble protein after heating vs DMSO (PISA); higher = thermal stabilisation; K562 lysate, 10 uM; active = over 0.2 and 3.5 SD of the protein, either way, in both replicates (recomputed)
[1] = compound: C1=CC=C(C=C1)[C@H](COC2=CC3=C(C=C2)NC(=O)N3)NC(=O)C4=CC=CN(C4=O)CC5=CC(=C(C=C5)F)F
Method in brief: (§1)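 Dounce homogenisation of K562 pellets in PBS pH 7.4 with 1 mM MgCl2 produced a crude extract, used at 1 mg/mL protein. Exposure to 10 μM compound lasted 30 min, and aliquots were then heated for 3 min across 48°C-58°C, pooled and brought to 0.5% NP-40 at 4°C. The supernatant after 21,000xg for 90 min was quantified by TMTpro 16plex LC-MS/MS with channel sums equalised. Duplicate values are given as log-two fold change in thermal stability relative to solvent controls.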

[2] = compound: CC1=C(SC2=C1C(=N[C@H](C3=NN=C(N32)C)CC(=O)N)C4=CC=C(C=C4)Cl)C
Method in brief: as §1

[3] = compound: c1ccc([C@@H]2C[C@H]2NC2CCNCC2)cc1
Method in brief: as §1

[4] = compound: Cc1sc2c(c1C)C(c1ccc(Cl)cc1)=N[C@@H](CC(=O)OC(C)(C)C)c1nnc(C)n1-2
Method in brief: as §1

[5] = compound: CC1=C2C(=CC=C1)N=C(N(C2=O)C3=CC=CC=C3C)CN4C=NC5=C(N=CN=C54)N
Method in brief: as §1

Row | Target | log2 fold change [1] | log2 fold change [2] | log2 fold change [3] | log2 fold change [4] | log2 fold change [5]
1 | TNS1 (UniProt Q9HBL0) | inactive: -0.072 | inactive: -0.081 | inactive: -0.056 |  | 
2 | TMEM189 (UniProt A5PLL7) | inactive: 0.09 | inactive: 0.083 | inactive: -0.051 | inactive: 0.141 | 
3 | TMEM59 (UniProt Q9BXS4) |  |  | inactive: 0.05 |  | 
4 | TPT1 (UniProt E9PJF7) | inactive: 0.177 | inactive: -0.413 | inactive: 0.239 |  | 
5 | TPRA1 (UniProt Q86W33) |  |  | inactive: 0.064 | inactive: -0.031 | 
6 | TMEM41B (UniProt Q5BJD5) | inactive: -0.027 | inactive: 0.141 | inactive: -0.008 | inactive: 0.036 | 
7 | TNKS (UniProt O95271) |  |  | inactive: -0.035 | inactive: 0.039 | inactive: 0.023
8 | TMEM209 (UniProt Q96SK2) | inactive: -0.046 | inactive: -0.087 | inactive: 0.058 | inactive: -0.19 | 
9 | TNNC2 (UniProt P02585) |  |  | inactive: 0.043 | inactive: -0.02 | inactive: -0.017
10 | TPRN (UniProt Q4KMQ1) |  |  |  | inactive: 0.141 | 
